Reference: the supplement of paper PMC12823440, “Inhibitors supercharge kinase turnover through native proteolytic circuits” (Nature, 2025)
Where a name gives a salt, the structure may show the parent alone. Some of the results follow. The calls rarely recur for the same compound in another form.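 Kinases, fused to nanoluciferase, were expressed in K562 cells; luminescence was measured every 4 h from 2 to 18 h as percent of control (DMSO = 100%, positive control = 0%). A time point is decreased if signal falls significantly (2 sigma). Hits were called by the authors by a rule that is not shown; the count of time points alone does not decide it.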

Molecular target: HER2 (UniProt P04626)
Assay: number of time points (of 5) at which kinase-Nluc abundance scored as decreased, DMSO-normalised (count); higher = more persistent destabilization
Conditions: K562; 2-18 h

SMILES	number of time points
CC(C)c1ccc(CC(=O)N2CCN(c3ccc(C#N)nn3)CC2)cc1 (10 µM)	0
C=CC(=O)N1CCC[C@@H](n2nc(C(=O)Nc3ccc(CC(=O)N(C)C)c(C)c3C)c3c(N)ncnc32)C1 (10 µM)	0
O=C(O)CCc1ccc(NCc2cccc(Oc3ccccc3)c2)cc1 (10 µM)	0
CCc1c(C)sc(NC(=S)NC(=O)c2ccc(Cl)cc2)c1C(N)=O (10 µM)	0
C=CC(=O)Nc1cccc(-n2c(=O)cc(C)c3cnc(Nc4ccc(OCCN(C)C)cc4OC)nc32)c1 (10 µM)	2
C=C(F)C(=O)N1CCN(c2nc(OC[C@@H]3CCCN3C)nc3c2CCN(c2cccc4cccc(Cl)c24)C3)C[C@@H]1CC#N (2.5 µM)	0
COc1ncc(Nc2ncc([C@@H](C)N3CCN(S(C)(=O)=O)CC3)cc2-c2nc(C)nc(N)n2)cc1F (10 µM)	0
COc1ccc2c(c1OC)OC1c3ccc(O)cc3OCC21 (centres undefined) [Methylnissolin] (10 µM)	0
O=C(CO)N1CCC(c2n[nH]c(-c3ccc(Cl)cc3)c2-c2ccncn2)CC1 (10 µM)	0
O=C1NC(=O)/C(=C/c2ccc(-c3ccc(F)cc3O)o2)S1 (10 µM)	0
Cc1cc(C(C)Nc2ccccc2)c2nc(N3CCOCC3)cc(=O)n2c1 (centres undefined) (10 µM)	0
Cc1cccc(-c2[nH]ncc2-c2ccc3ncccc3n2)n1 (10 µM)	0
Cc1cc2ncc(-c3ccccc3)nc2cc1C (10 µM)	0
COc1cc(C(=O)N2CCC(N3CCN(C)CC3)CC2)ccc1Nc1ncc2c(n1)N(C)c1ccccc1C(=O)N2C (10 µM)	0
COc1cnccc1Nc1nc(-c2nn(Cc3c(F)cc(OCCO)cc3F)c3ccccc23)ncc1OC (10 µM)	0
C[C@@H]1COCCN1c1cc(C2([S@](C)(=N)=O)CC2)nc(-c2cc[nH]c3nccc2-3)n1 [Ceralasertib] (2.5 µM)	0
CC(C)C[C@H](NC(=O)[C@H](CCCCN)NC(=O)[C@H](CO)NC(=O)[C@@H](N)CC(C)C)C(N)=O [LSKL, Inhibitor of Thrombospondin (TSP-1) (TFA)] (10 µM)	0

Rewritten as a markdown table: entries from further up.

| SMILES | number of time points |
| --- | --- |
| O=C1NC(=O)/C(=C/c2ccc(-c3ccc(F)cc3O)o2)S1 (10 µM) | 0 |
| Cc1cc(C(C)Nc2ccccc2)c2nc(N3CCOCC3)cc(=O)n2c1 (centres undefined) (10 µM) | 0 |
| C[C@@H]1COCCN1c1cc(C2([S@](C)(=N)=O)CC2)nc(-c2cc[nH]c3nccc2-3)n1 [Ceralasertib] (2.5 µM) | 0 |

Remaining list, next part

SMILES	number of time points
Cn1cc(-c2cc3c(N4CCN(c5ncc([C@@](C)(N)c6ccc(F)cc6)cn5)CC4)ncnn3c2)cn1 [Avapritinib] (2.5 µM)	0
CC(C)(C)C(=O)N1N=CC[C@H]1c1ccccc1 (10 µM)	0
N#Cc1ccc(-c2c(-c3ncn[nH]3)sc(N3CCOCC3)c2C#N)c(F)c1 (10 µM)	0
O=[N+]([O-])c1ccc(Sc2cccc[n+]2[O-])c2nonc12 (2.5 µM)	0
Nc1nc2cc(-c3ccc4ncc(C(=O)N5CCOCC5)n4c3)ccc2o1 [Serabelisib] (10 µM)	0
NCCCCCCNS(=O)(=O)c1cccc2c(Cl)cccc12 [W-7 (hydrochloride)] (10 µM)	0
COc1ccc(CCNc2ncc3c(=O)n(-c4cccc(F)c4)c(=O)[nH]c3n2)cc1OC (2 µM)	0
CCc1ccc(C(=O)COc2ccc(CC3SC(=O)NC3=O)cc2)nc1 (centres undefined) (10 µM)	0
Nc1cc(C(F)F)c(-c2nc(N3C4CCC3COC4)nc(N3C4CCC3COC4)n2)cn1 (2.5 µM)	2
CC(C)(C)c1cc(C(c2cc3c(cc2O)OCO3)N2CCOCC2)cc(C(C)(C)C)c1O (centres undefined) (2.5 µM)	0
N#C/C(=C(/N)Sc1ccc(N)cc1)c1ccccc1C(F)(F)F (10 µM)	0
CC(C)c1cnn2c(NCc3ccccc3-n3cccn3)nc(OC3CCCNC3)nc12 (centres undefined) (2.5 µM)	0
COc1cc(C(C)=O)cc(OC)c1O [Acetosyringone] (10 µM)	0
O=S(=O)(c1cccc2cnccc12)N1CCNCC1 (10 µM)	0
CN1C(=O)NC(Cc2c[nH]c3c(Cl)cccc23)C1=O (racemic) [Necrostatin 2 (racemate)] (10 µM)	0
COc1ccc2c(c1)c(C1=C(c3c[nH]c4ccccc34)C(=O)NC1=O)cn2CCCN(C)C (10 µM)	0
COc1cc(-c2cc(-c3cc(OC)c(OC)c(OC)c3)cc(C(F)P(=O)(OCOC(=O)C(C)(C)C)OCOC(=O)C(C)(C)C)c2)cc(OC)c1OC (centres undefined) [Stafia-1-dipivaloyloxymethyl ester] (2.5 µM)	0
